Data from publication PMC7982521, “Studies on the Changes of Pharmacokinetics Behaviors of Phytochemicals and the Influence on Endogenous Metabolites After the Combination of Radix Bupleuri and Radix Paeoniae Alba Based on Multi-Component Pharmacokinetics and Metabolomics” (Frontiers in Pharmacology, 2021).

System: endogenous metabolites
Experiment: Metabolomics: dynamic response of endogenous metabolites in rat plasma after oral RB-RPA (UPLC-HRMS, PCA/PLS-DA/OPLS-DA, relative distance)
Format: in vivo, Sprague-Dawley rats
Settings: mean ± SD, n = 6

Row | SMILES | level of endogenous metabolite normalized by IS (glycyrrhizin) (0.083 h after oral RB-RPA) | level of endogenous metabolite normalized by IS (glycyrrhizin) (0.5 h after oral RB-RPA) | level of endogenous metabolite normalized by IS (glycyrrhizin) (0.75 h after oral RB-RPA) | level of endogenous metabolite normalized by IS (glycyrrhizin) (1 h after oral RB-RPA) | level of endogenous metabolite normalized by IS (glycyrrhizin) (1.5 h after oral RB-RPA) | level of endogenous metabolite normalized by IS (glycyrrhizin) (3 h after oral RB-RPA) | level of endogenous metabolite normalized by IS (glycyrrhizin) (5 h after oral RB-RPA) | level of endogenous metabolite normalized by IS (glycyrrhizin) (8 h after oral RB-RPA) | level of endogenous metabolite normalized by IS (glycyrrhizin) (12 h after oral RB-RPA) | level of endogenous metabolite normalized by IS (glycyrrhizin) (24 h after oral RB-RPA)
1 | N[C@@H](Cc1ccc(O)cc1)C(=O)O [L-Tyrosine] | 5.212±1.453 | 3.206±1.734 | 6.349±1.349 | 5.413±1.022 | 5.559±1.183 | 2.645±0.892 | 4.952±1.005 | 5.214±1.325 | 6.525±2.109 | 5.311±1.444
2 | C[C@H](CCC(=O)O)[C@H]1CC[C@H]2[C@@H]3[C@H](O)C[C@@H]4C[C@H](O)CC[C@]4(C)[C@H]3C[C@H](O)[C@]12C [Cholic acid] | 0.040±0.007 | 0.031±0.010 | 0.028±0.007 | 0.021±0.006 | 0.016±0.003 | 0.019±0.002 | 0.025±0.005 | 0.029±0.007 | 0.037±0.009 | 0.041±0.012
